# Measurements published in the supplement of paper PMC6411743.
# The chains behind the UniProt entries cited, without tags or fusion partners. Where a name states a change or a piece, a line headed by the entry shows the natural chain unless it says otherwise.
# UniProt O75643, whole entry: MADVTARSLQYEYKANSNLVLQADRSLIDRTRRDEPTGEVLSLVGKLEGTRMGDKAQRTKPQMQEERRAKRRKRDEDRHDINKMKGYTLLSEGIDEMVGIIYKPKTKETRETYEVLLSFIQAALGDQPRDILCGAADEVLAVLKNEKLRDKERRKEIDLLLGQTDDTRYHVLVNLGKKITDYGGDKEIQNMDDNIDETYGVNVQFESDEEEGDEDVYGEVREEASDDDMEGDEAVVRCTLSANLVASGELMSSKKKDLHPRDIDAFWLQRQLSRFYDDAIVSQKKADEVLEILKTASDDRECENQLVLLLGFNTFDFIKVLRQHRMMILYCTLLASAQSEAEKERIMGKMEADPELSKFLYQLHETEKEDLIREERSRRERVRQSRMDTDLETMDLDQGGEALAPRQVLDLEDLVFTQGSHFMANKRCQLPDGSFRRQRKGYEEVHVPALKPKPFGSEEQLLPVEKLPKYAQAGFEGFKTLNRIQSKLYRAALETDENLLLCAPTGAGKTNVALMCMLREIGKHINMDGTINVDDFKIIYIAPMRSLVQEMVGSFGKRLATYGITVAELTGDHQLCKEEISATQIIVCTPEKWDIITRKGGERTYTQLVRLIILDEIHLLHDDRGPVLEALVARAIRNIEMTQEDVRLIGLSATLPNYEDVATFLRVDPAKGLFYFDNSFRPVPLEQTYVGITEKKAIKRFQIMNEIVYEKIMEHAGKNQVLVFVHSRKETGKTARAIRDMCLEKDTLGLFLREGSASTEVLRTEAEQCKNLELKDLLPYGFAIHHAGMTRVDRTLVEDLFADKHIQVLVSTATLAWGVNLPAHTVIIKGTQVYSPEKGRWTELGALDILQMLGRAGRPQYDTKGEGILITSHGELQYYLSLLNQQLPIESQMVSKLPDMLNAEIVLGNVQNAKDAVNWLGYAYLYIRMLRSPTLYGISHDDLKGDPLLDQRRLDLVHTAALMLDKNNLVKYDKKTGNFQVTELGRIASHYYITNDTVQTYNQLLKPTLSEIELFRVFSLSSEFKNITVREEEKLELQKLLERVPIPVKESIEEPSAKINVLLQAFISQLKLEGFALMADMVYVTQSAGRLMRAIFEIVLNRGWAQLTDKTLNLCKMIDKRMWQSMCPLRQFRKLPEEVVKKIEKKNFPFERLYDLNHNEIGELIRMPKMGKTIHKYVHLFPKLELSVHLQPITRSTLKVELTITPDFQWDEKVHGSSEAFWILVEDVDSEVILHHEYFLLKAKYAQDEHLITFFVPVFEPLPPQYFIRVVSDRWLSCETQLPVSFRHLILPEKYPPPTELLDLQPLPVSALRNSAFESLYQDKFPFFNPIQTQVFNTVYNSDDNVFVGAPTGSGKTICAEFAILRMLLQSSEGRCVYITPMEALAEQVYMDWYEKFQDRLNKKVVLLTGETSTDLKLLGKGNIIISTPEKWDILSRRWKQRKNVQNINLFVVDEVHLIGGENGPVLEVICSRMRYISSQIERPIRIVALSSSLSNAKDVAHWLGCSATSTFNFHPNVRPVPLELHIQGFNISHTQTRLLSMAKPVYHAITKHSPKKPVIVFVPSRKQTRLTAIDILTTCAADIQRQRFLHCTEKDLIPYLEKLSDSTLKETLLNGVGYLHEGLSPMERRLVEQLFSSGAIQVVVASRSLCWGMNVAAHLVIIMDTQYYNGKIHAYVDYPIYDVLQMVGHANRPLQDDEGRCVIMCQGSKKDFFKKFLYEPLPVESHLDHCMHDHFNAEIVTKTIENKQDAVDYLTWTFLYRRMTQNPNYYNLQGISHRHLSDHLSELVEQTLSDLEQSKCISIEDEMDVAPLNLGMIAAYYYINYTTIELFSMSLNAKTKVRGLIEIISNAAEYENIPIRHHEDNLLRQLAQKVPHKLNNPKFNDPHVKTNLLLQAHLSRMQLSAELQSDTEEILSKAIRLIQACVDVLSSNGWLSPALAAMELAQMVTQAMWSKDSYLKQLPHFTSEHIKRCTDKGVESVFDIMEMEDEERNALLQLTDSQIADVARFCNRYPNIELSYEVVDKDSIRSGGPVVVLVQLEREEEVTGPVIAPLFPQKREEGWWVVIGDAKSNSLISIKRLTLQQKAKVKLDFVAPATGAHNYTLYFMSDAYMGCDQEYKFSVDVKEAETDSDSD
# UniProt O75396: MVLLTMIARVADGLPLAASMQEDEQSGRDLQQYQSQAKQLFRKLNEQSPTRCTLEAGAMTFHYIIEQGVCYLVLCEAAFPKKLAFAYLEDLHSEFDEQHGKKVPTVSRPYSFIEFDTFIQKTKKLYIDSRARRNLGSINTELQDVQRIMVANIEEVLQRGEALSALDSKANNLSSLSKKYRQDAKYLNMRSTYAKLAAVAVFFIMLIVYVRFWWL
# UniProt O95182, whole entry: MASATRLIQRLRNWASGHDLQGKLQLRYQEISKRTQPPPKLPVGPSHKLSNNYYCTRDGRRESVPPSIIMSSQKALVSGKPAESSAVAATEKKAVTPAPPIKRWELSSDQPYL
# UniProt O60678: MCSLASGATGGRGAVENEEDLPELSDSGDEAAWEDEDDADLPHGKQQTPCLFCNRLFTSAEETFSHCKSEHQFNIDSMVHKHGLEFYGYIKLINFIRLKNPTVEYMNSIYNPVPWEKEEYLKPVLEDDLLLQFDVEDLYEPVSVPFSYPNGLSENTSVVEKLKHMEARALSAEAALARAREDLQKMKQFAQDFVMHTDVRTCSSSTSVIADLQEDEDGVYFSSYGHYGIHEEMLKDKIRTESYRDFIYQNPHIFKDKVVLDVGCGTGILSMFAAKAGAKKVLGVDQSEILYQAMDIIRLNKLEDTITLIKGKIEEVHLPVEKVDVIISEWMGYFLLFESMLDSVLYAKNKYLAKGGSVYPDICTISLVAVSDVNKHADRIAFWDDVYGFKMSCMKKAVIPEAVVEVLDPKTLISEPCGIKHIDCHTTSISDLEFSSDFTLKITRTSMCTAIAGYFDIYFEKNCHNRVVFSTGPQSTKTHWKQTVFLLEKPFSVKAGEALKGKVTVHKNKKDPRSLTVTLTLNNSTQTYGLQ
# UniProt O75460: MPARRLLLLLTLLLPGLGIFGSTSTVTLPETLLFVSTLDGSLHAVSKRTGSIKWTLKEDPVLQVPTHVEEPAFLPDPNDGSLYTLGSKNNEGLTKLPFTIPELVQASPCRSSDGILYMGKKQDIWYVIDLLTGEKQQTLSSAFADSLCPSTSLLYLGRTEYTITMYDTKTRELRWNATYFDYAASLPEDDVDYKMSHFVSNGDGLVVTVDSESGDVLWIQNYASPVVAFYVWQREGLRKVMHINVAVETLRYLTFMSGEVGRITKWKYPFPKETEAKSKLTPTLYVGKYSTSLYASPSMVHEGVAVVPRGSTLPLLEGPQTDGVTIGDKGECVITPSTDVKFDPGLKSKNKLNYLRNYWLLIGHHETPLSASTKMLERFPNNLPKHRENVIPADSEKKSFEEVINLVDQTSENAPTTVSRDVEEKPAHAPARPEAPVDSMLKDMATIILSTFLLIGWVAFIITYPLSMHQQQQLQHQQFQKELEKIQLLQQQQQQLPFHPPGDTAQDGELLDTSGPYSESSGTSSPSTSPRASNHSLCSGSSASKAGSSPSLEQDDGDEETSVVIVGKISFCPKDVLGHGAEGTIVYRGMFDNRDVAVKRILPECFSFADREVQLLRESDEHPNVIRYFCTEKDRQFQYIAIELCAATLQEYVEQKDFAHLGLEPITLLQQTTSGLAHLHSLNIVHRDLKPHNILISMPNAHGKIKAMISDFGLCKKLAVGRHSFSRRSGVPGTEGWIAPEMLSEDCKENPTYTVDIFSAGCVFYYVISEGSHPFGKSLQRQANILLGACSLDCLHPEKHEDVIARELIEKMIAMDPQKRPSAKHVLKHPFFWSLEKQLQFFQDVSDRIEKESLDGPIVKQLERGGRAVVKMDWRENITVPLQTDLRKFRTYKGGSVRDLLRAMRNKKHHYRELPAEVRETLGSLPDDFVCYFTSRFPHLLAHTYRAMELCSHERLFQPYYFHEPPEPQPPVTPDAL
# UniProt O94887: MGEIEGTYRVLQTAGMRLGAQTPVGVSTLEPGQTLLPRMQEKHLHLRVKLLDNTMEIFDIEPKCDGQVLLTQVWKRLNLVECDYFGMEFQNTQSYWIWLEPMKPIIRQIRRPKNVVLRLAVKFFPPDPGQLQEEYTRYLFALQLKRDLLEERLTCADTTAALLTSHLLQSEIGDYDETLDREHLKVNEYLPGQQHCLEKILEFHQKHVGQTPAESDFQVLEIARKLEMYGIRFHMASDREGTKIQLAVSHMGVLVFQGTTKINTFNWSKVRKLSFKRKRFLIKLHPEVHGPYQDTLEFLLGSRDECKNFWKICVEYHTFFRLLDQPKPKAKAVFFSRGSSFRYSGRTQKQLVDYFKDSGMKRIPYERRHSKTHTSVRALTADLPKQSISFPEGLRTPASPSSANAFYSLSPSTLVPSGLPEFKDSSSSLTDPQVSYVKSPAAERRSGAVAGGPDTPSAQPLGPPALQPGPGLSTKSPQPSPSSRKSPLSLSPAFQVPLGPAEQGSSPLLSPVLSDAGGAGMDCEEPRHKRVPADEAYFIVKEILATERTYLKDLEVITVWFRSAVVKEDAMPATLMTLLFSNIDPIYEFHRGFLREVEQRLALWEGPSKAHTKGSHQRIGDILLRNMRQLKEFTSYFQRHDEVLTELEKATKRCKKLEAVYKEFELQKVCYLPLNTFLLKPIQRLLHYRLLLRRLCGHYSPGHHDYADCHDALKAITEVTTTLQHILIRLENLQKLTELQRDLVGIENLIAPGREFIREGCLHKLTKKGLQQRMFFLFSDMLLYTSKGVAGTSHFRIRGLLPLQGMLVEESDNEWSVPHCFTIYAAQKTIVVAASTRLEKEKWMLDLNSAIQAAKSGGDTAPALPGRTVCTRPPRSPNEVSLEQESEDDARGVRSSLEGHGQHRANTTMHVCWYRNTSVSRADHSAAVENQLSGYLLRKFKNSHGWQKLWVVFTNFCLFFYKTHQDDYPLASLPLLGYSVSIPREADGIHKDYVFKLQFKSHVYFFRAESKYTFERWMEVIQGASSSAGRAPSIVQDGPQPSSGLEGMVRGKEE
# UniProt O94762: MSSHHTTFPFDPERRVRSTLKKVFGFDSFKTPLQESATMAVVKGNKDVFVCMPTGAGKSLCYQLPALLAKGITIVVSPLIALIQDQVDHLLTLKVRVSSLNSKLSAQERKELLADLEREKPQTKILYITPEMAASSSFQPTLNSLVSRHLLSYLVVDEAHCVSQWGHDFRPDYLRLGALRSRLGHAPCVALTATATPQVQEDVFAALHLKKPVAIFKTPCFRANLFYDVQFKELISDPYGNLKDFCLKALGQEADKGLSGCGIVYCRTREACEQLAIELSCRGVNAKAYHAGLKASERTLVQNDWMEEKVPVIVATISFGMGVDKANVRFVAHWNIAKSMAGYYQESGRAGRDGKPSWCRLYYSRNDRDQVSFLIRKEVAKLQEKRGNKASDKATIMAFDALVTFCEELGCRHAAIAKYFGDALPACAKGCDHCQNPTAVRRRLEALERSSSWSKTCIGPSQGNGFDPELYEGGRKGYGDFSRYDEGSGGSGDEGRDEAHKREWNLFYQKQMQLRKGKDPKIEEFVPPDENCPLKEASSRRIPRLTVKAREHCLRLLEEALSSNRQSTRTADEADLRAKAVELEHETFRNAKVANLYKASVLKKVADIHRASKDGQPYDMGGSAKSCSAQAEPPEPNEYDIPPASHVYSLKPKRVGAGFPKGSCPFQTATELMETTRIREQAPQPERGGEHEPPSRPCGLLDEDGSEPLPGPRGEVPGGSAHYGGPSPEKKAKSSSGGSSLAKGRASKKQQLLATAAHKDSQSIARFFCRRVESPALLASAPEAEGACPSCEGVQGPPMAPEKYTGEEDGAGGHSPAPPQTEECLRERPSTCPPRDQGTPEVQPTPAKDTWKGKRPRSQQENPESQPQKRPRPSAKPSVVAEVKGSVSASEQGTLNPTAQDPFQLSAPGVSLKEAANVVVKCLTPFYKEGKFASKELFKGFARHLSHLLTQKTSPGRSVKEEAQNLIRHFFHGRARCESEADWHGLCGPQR
# UniProt O60234, whole entry: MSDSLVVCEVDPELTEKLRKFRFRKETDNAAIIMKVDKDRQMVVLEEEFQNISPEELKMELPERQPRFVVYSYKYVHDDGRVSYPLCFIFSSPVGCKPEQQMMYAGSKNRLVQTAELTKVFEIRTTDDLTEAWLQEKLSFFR
# UniProt O76095: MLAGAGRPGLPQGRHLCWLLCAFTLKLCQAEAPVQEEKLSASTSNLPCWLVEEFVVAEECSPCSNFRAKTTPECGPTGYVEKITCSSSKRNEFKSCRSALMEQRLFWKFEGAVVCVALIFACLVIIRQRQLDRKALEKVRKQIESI
# UniProt O75663: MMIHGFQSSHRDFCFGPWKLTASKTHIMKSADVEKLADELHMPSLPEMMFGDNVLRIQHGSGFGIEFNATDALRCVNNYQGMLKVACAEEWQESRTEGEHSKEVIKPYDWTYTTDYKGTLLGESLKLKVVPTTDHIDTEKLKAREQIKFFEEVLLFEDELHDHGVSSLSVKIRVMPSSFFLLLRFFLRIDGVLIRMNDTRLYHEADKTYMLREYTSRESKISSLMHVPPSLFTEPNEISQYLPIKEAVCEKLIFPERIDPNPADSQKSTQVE
# ± gives the standard deviation of the averaged measurements. The list shows a part of the results, in another mix than the full data.
# Compound: Nc1ncnc2c1ncn2[C@@H]1O[C@H](COP(=O)(O)OP(=O)(O)NP(=O)(O)O)[C@@H](O)[C@H]1O [adenylyl imidodiphosphate]
# Assay: NP40-soluble protein abundance relative to vehicle (solubility fold change) (ratio); higher = more soluble protein in presence of AMP-PNP
# Procedure, shortened: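 Eight concentrations, 0.1 to 10 mM, were tested on Jurkat crude lysate for 10 min at room temperature and then 3 min at 37 °C, in three independent experiments. The lysate was solubilised with 0.8% NP40 and benzonase, ultracentrifuged, and the supernatant TMT-labelled for LC-MS/MS. Each value is the fold change against the detergent-processed vehicle in its own replicate, from vsn-normalised intensities.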
Target,NP40-soluble protein abundance (concentration: 1mM),NP40-soluble protein abundance (concentration: 2mM),NP40-soluble protein abundance (concentration: 4mM),NP40-soluble protein abundance (concentration: 6mM),NP40-soluble protein abundance (concentration: 8mM),NP40-soluble protein abundance (concentration: 10mM)
UniProt O75381 and related entries,0.996 ± 0.023,1.024 ± 0.009,0.999 ± 0.046,0.968 ± 0.068,0.98 ± 0.073,1 ± 0.11
RNGTT (UniProt O60942),0.978 ± 0.038,0.95 ± 0.056,0.988 ± 0.027,0.9526 ± 0.0079,0.9841 ± 0.0079,0.9551 ± 0.0037
SNRNP200 (UniProt O75643),0.979 ± 0.017,0.911 ± 0.12,0.982 ± 0.071,1.01 ± 0.063,1.06 ± 0.085,1.04 ± 0.13
HUS1 (UniProt O60921),0.993 ± 0.017,0.963 ± 0.035,0.974 ± 0.022,0.991 ± 0.015,0.997 ± 0.019,0.974 ± 0.013
UniProt O75396,0.983 ± 0.04,1.01 ± 0.07,0.962 ± 0.051,0.97 ± 0.038,0.953 ± 0.021,0.947 ± 0.048
UniProt O75947,0.95 ± 0.042,0.963 ± 0.032,0.869 ± 0.021,0.87 ± 0.066,0.838 ± 0.064,0.834 ± 0.056
NDUFA7 (UniProt O95182),0.963 ± 0.028,0.982 ± 0.023,0.921 ± 0.046,0.951 ± 0.026,0.901 ± 0.042,0.922 ± 0.043
SGPL1 (UniProt O95470),0.965 ± 0.043,0.92 ± 0.04,0.959 ± 0.026,1.02 ± 0.062,1.053 ± 0.0094,1.04 ± 0.035
PRMT3 (UniProt O60678),0.992 ± 0.027,0.976 ± 0.021,1 ± 0.031,0.95 ± 0.034,0.982 ± 0.016,0.9329 ± 0.0088
UniProt O75460,1.04 ± 0.038,1.02 ± 0.043,1.04 ± 0.019,1.03 ± 0.029,1.02 ± 0.05,1.05 ± 0.058
SNX3 (UniProt O60493),1.04 ± 0.055,1.12 ± 0.026,1.02 ± 0.096,0.993 ± 0.02,0.961 ± 0.028,0.993 ± 0.11
PSMG1 (UniProt O95456),0.979 ± 0.017,0.926 ± 0.07,0.984 ± 0.052,1.02 ± 0.12,1.02 ± 0.081,1 ± 0.073
AHSA1 (UniProt O95433),0.991 ± 0.033,0.927 ± 0.045,0.94 ± 0.032,0.945 ± 0.017,0.946 ± 0.029,0.905 ± 0.014
PLOD3 (UniProt O60568),0.974 ± 0.043,0.979 ± 0.071,1 ± 0.025,1.01 ± 0.038,1 ± 0.02,1.02 ± 0.027
UniProt O94887 and related entries,0.993 ± 0.044,1.02 ± 0.0093,0.979 ± 0.053,0.951 ± 0.031,0.959 ± 0.0022,0.961 ± 0.039
UniProt O94842 and related entries,1.08 ± 0.019,1.08 ± 0.048,1.1 ± 0.01,1.06 ± 0.045,1.05 ± 0.051,1.06 ± 0.039
GLRX3 (UniProt O76003),1.04 ± 0.026,1.02 ± 0.011,0.99 ± 0.027,0.9932 ± 0.0036,0.989 ± 0.031,0.976 ± 0.055
UniProt O43929 and related entries,0.941 ± 0.06,0.921 ± 0.05,0.961 ± 0.044,0.954 ± 0.039,0.981 ± 0.016,0.947 ± 0.051
LYPLA2 (UniProt O95372),0.984 ± 0.044,0.918 ± 0.055,0.945 ± 0.028,0.972 ± 0.052,0.988 ± 0.075,0.932 ± 0.064
SAP30 (UniProt O75446),0.96 ± 0.04,0.982 ± 0.086,0.937 ± 0.052,1.06 ± 0.07,1.03 ± 0.044,1.07 ± 0.028
UniProt O94973 and related entries,1.02 ± 0.028,0.977 ± 0.029,1.05 ± 0.033,1.06 ± 0.037,1.08 ± 0.03,1.09 ± 0.033

Target,NP40-soluble protein abundance (concentration: 1mM),NP40-soluble protein abundance (concentration: 2mM),NP40-soluble protein abundance (concentration: 4mM),NP40-soluble protein abundance (concentration: 6mM),NP40-soluble protein abundance (concentration: 8mM),NP40-soluble protein abundance (concentration: 10mM)
ZMPSTE24 (UniProt O75844),0.939 ± 0.087,0.891 ± 0.024,0.922 ± 0.076,0.946 ± 0.12,0.977 ± 0.096,0.932 ± 0.072
ERLIN1 (UniProt O75477),0.976 ± 0.09,0.991 ± 0.058,0.927 ± 0.11,0.986 ± 0.11,0.943 ± 0.096,0.991 ± 0.18
NDUFS5 (UniProt O43920),1.02 ± 0.068,1.06 ± 0.15,1.01 ± 0.079,1.09 ± 0.068,1.08 ± 0.069,1.06 ± 0.039
UniProt O75925 and related entries,1.01 ± 0.028,0.957 ± 0.042,1.01 ± 0.025,0.937 ± 0.0065,1.028 ± 0.0088,0.963 ± 0.032
UniProt O95394 and related entries,1.02 ± 0.026,0.961 ± 0.049,1.01 ± 0.019,0.973 ± 0.019,0.984 ± 0.014,0.973 ± 0.011
UniProt O60293 and related entries,1.04 ± 0.05,1.09 ± 0.045,1.1 ± 0.014,1.1 ± 0.068,1.06 ± 0.065,1.14 ± 0.053
UniProt O75326 and related entries,1 ± 0.015,0.994 ± 0.042,0.976 ± 0.017,0.989 ± 0.031,1 ± 0.021,0.985 ± 0.025
IPO7 (UniProt O95373),0.984 ± 0.023,0.96 ± 0.014,0.978 ± 0.03,1.01 ± 0.016,1.02 ± 0.021,0.987 ± 0.04
UniProt O43924 and related entries,1.01 ± 0.033,0.928 ± 0.1,1 ± 0.051,1 ± 0.02,1.02 ± 0.046,0.98 ± 0.042
UniProt O60506 and related entries,0.975 ± 0.074,0.973 ± 0.054,0.993 ± 0.08,0.994 ± 0.071,1.01 ± 0.081,1.01 ± 0.077
UniProt O94762 and related entries,1 ± 0.05,1.03 ± 0.093,1 ± 0.041,1.02 ± 0.041,1.02 ± 0.058,1.01 ± 0.071
UniProt O60879-2|C9J6U3,0.9746 ± 0.0015,0.9924 ± 0.009,0.9751 ± 0.0032,0.96 ± 0.027,0.936 ± 0.023,0.952 ± 0.028
DNAJC8 (UniProt O75937),1.01 ± 0.12,1.14 ± 0.12,1.03 ± 0.14,1.03 ± 0.062,1.07 ± 0.056,1.01 ± 0.14
GMFG (UniProt O60234),1.023 ± 0.007,1.07 ± 0.065,1.04 ± 0.018,1.03 ± 0.019,1.03 ± 0.024,1.01 ± 0.044
UniProt O76095 and related entries,0.988 ± 0.039,0.981 ± 0.037,0.978 ± 0.038,0.989 ± 0.018,0.976 ± 0.011,0.95 ± 0.025
TIPRL (UniProt O75663),1.05 ± 0.065,1.03 ± 0.036,0.986 ± 0.013,0.985 ± 0.045,0.972 ± 0.062,1 ± 0.064
UniProt O94903,1.03 ± 0.03,1.09 ± 0.059,1.03 ± 0.063,0.998 ± 0.021,0.98 ± 0.024,1.05 ± 0.078
SRP72 (UniProt O76094),0.999 ± 0.057,1.04 ± 0.1,1.05 ± 0.08,1.16 ± 0.074,1.16 ± 0.057,1.25 ± 0.13
UniProt O95163,0.9554 ± 0.0019,0.895 ± 0.12,0.956 ± 0.023,0.931 ± 0.031,0.949 ± 0.044,0.886 ± 0.054
CPD (UniProt O75976),0.982 ± 0.015,1.04 ± 0.049,0.977 ± 0.017,0.9756 ± 0.0083,0.955 ± 0.025,0.998 ± 0.021
NBN (UniProt O60934),0.9851 ± 0.0049,1 ± 0.019,1 ± 0.037,1.01 ± 0.04,1 ± 0.029,1.04 ± 0.055

# A different layout for part of the listing above:
Target	NP40-soluble protein abundance (concentration: 1mM)	NP40-soluble protein abundance (concentration: 2mM)	NP40-soluble protein abundance (concentration: 4mM)	NP40-soluble protein abundance (concentration: 6mM)	NP40-soluble protein abundance (concentration: 8mM)	NP40-soluble protein abundance (concentration: 10mM)
UniProt O75925 and related entries	1.01 ± 0.028	0.957 ± 0.042	1.01 ± 0.025	0.937 ± 0.0065	1.028 ± 0.0088	0.963 ± 0.032
TIPRL (UniProt O75663)	1.05 ± 0.065	1.03 ± 0.036	0.986 ± 0.013	0.985 ± 0.045	0.972 ± 0.062	1 ± 0.064
